# Measurements from the supplement of paper PMC11732987, “Enantioselective OTUD7B fragment discovery through chemoproteomics screening and high-throughput optimisation” (Communications Chemistry, 2025).
# Sequences of proteins named here, by UniProt entry; tags and fusion partners are left off. A change or cut given only in a name is not applied to a line headed by its entry. Residues count along the entry.
# UniProt Q15208: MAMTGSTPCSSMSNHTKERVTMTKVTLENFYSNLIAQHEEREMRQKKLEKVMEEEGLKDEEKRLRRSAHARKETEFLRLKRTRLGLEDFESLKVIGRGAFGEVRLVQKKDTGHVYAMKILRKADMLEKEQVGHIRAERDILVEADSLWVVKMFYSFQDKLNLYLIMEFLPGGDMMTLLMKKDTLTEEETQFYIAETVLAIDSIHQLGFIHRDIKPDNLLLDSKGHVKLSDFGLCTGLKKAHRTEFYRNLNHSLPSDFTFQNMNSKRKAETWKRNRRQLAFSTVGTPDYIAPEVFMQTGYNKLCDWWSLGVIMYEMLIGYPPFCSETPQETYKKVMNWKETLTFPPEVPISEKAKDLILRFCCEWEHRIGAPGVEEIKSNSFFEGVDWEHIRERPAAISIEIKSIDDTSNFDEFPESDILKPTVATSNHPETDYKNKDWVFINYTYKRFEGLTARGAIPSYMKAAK
# UniProt Q9P2R7: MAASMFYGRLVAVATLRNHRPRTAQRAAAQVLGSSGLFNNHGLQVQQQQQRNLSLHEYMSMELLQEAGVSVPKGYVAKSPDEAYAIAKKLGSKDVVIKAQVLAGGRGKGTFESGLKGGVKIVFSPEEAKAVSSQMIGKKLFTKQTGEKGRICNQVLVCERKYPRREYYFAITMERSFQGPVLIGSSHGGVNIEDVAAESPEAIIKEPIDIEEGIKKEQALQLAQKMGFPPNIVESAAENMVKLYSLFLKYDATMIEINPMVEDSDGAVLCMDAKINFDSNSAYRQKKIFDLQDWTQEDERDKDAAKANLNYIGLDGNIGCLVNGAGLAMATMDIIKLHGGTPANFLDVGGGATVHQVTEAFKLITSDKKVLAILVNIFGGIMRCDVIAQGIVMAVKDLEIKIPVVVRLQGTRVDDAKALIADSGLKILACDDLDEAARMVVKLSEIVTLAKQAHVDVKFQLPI
# UniProt O15400: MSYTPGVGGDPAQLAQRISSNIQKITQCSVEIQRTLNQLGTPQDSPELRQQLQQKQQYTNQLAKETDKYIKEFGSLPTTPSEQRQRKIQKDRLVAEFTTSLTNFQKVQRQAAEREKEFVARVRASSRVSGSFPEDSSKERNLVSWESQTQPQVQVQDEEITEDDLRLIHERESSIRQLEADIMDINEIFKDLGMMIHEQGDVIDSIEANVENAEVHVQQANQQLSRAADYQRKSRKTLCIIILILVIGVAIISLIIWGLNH
# UniProt O95210: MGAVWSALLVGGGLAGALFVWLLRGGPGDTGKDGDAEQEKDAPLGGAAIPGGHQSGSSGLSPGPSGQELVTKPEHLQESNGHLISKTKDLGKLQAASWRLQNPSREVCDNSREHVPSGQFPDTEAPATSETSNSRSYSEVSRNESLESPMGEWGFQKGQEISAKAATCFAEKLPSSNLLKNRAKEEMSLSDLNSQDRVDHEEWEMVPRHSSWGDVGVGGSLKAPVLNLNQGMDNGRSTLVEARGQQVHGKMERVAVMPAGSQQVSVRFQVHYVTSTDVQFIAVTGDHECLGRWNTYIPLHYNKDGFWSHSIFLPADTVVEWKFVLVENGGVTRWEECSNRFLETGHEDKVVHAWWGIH
# UniProt Q9Y5M8: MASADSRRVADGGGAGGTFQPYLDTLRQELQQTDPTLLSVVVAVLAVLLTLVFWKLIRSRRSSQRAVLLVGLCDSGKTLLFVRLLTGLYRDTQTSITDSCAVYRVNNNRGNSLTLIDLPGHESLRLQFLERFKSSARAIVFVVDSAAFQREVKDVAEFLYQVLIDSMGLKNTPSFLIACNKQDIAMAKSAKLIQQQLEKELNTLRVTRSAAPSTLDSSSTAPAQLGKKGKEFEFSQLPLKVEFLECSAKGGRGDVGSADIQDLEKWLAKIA
# UniProt Q9NP77: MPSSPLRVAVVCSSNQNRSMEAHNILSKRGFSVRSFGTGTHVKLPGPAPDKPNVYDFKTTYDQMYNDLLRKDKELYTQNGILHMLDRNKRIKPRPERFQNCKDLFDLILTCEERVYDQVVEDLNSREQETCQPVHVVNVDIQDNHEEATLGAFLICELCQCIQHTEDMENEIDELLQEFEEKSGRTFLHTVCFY
# UniProt O95793: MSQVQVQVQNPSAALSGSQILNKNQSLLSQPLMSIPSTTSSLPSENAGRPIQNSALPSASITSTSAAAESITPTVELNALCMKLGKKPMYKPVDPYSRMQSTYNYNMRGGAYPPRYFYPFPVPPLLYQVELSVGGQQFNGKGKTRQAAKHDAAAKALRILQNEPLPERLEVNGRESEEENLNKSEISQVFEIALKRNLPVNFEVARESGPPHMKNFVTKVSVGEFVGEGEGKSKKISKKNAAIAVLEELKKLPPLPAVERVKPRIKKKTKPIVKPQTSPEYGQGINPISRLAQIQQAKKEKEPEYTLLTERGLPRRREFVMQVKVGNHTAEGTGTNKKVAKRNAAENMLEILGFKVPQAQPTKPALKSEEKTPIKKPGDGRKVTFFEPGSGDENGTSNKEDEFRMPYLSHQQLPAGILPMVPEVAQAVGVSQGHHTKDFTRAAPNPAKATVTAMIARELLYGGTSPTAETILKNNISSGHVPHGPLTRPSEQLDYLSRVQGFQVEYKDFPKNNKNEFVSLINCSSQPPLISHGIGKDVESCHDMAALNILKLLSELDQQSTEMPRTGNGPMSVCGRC
# UniProt Q8NEM7: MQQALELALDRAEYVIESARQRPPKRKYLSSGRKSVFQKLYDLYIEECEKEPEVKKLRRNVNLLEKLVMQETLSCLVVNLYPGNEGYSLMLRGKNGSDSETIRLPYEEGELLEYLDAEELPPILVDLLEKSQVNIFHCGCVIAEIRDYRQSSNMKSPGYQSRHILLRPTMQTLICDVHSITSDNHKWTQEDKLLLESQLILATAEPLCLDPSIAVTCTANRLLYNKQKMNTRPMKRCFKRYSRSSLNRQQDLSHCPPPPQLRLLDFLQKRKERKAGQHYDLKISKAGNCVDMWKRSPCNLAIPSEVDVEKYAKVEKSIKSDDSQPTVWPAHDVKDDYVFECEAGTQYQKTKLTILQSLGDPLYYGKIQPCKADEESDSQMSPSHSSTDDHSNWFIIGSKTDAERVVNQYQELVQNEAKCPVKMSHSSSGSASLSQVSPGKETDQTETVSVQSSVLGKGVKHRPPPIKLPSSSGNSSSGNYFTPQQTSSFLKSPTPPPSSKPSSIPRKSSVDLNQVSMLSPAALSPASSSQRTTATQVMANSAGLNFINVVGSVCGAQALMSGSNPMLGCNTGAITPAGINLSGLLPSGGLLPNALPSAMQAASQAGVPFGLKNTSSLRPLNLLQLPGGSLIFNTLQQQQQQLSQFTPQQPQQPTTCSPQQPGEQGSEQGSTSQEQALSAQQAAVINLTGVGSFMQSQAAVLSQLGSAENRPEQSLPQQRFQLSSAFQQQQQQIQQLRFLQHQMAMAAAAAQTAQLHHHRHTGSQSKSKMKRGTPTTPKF
# UniProt Q9Y2Z0: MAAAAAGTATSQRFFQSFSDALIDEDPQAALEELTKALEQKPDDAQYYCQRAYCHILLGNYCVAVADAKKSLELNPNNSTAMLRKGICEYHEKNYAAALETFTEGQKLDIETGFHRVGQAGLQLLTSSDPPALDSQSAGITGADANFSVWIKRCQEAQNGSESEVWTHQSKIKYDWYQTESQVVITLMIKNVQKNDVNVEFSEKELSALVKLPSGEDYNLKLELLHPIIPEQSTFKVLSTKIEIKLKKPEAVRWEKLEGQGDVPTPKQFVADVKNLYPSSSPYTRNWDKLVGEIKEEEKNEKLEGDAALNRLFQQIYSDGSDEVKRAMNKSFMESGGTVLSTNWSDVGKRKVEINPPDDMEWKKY
# UniProt Q8N300: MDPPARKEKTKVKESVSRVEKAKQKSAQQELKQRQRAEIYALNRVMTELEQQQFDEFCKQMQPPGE
# UniProt Q13586, 31-50: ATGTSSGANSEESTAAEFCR
# UniProt P19623, 114-135: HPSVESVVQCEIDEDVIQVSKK
# UniProt O60506: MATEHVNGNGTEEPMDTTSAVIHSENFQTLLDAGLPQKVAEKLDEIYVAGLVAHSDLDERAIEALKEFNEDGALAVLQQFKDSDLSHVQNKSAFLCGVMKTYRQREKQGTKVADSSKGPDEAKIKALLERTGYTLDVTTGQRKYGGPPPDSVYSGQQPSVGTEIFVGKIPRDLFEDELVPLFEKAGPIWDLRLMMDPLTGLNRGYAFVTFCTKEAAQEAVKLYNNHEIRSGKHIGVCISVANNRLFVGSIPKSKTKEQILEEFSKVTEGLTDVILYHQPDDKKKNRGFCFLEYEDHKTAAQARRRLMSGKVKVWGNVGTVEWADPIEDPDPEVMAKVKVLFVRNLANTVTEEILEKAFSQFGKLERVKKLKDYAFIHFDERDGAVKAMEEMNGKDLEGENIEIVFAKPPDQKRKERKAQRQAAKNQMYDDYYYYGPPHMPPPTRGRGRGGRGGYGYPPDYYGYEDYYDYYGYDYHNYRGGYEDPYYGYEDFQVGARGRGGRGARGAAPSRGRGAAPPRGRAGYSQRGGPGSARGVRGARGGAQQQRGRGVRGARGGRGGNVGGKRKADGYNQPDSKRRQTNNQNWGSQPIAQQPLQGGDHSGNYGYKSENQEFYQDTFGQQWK
# UniProt Q8WXA9, 483-504: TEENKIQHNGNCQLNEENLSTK
# UniProt Q8NB90: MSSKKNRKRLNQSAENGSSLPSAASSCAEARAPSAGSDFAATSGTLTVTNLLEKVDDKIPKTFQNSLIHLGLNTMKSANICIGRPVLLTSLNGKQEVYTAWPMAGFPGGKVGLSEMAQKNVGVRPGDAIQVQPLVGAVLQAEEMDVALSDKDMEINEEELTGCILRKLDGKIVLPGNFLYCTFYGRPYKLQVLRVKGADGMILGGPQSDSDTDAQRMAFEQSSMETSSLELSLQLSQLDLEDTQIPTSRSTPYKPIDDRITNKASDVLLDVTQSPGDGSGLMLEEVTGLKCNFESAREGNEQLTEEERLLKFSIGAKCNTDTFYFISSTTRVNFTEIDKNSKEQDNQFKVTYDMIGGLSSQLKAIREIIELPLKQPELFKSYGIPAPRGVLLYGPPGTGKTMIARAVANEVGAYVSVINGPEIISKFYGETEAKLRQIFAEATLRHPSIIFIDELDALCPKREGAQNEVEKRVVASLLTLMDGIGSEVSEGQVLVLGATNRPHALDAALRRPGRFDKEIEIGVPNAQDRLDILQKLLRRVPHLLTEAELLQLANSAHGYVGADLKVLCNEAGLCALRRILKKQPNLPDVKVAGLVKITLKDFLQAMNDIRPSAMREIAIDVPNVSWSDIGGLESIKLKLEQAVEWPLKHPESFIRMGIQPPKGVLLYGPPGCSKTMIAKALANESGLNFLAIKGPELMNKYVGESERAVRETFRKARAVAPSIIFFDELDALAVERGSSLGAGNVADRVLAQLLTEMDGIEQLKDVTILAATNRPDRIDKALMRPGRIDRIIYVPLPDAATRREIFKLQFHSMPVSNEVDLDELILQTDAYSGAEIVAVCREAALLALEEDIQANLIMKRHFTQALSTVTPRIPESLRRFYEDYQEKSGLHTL
# UniProt Q8N5C6: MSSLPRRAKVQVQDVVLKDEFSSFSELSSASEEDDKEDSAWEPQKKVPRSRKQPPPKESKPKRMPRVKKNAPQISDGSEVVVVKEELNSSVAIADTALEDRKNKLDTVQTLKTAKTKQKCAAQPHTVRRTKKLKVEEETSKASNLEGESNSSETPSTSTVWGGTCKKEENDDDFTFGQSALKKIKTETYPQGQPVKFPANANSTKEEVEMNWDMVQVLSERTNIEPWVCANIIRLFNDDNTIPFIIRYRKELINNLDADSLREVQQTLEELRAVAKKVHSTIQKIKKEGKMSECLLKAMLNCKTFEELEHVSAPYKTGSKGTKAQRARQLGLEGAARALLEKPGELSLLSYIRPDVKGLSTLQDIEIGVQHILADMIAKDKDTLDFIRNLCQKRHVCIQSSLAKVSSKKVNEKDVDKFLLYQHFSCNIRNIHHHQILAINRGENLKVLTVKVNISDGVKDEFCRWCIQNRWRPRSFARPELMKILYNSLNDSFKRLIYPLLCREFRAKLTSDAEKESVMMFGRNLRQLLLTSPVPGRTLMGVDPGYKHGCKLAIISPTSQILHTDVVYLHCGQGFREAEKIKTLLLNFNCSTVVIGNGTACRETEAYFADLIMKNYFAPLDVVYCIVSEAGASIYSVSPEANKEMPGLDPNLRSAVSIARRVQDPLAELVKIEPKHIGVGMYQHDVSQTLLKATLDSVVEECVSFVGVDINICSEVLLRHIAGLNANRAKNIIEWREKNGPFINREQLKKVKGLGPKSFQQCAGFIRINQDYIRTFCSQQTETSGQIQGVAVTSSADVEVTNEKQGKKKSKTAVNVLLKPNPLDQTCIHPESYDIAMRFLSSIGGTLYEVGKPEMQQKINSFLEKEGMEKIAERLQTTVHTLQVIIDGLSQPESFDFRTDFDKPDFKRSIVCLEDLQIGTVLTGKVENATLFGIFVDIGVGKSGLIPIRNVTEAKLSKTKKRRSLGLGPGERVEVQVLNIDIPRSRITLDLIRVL
# UniProt Q8TCT8, 492-520: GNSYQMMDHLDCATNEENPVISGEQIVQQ
# This is one part of the list. The data scatter; read single values as rough.
# Compound: ClCC(=O)N[C@@H]1CCCc2ccccc12
# Test: log2 mean competition ratio of IA-DTB cysteine labelling (DMSO/compound) (log2 ratio); higher = stronger cysteine engagement by compound
# Conditions: 200 µM; treatment time: 4 h; cell line lysate: HEK293T
# Description: (§1)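 IA-DTB competitive cysteine chemoproteomics in HEK293T RIPA lysate. Lysates were treated with compound 29 or 30 at 50 or 200 µM for 4 h, then IA-DTB (500 µM, 1 h), trypsin-digested, NeutrAvidin-enriched and analysed by diaPASEF. Competition ratio = intensity DMSO / intensity compound (n=4 treated, n=64 DMSO); binding: mean log2 CR ≥ 1 and p ≤ 0.05 plus QC filters. Target is the cysteine site.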
row,Target,log2 mean competition ratio
1,SUPT6H C1435 (UniProt Q7KZ85),0.114
2,STK38 C234 (UniProt Q15208),0.0682
3,SUCLA2 C384 (UniProt Q9P2R7),-0.0308
4,STX7 C28 (UniProt O15400),-0.216
5,STBD1 C108 (UniProt O95210),0.176
6,SRPRB C100 (UniProt Q9Y5M8),-0.314
7,STIP1 C370,-0.174
8,SSU72 C12 (UniProt Q9NP77),0.133
9,STAU1 C574 (UniProt O95793),0.329
10,SYNE2 C1235 (UniProt Q8WXH0),0.0708
11,SSH1 C564,0.629
12,SUPT20H C48 (UniProt Q8NEM7),0.157
13,SUGT1 C88 (UniProt Q9Y2Z0),0.0918
14,SVBP C58 (UniProt Q8N300),0.286
15,STK38 C9 (UniProt Q15208),0.374
16,SYNE3 C51,-0.202
17,SYNE2 C2212 (UniProt Q8WXH0),-0.0517

# Compound: ClCC(=O)N[C@H]1CCCc2ccccc12
# Test: as above
# Conditions: 50 µM; treatment time: 4 h; cell line lysate: HEK293T
# Description: as §1
row,Target,log2 mean competition ratio
1,SPATA2 C41,0.195
2,STIM1 C49 (UniProt Q13586),-0.167
3,STK24 C394,0.0638
4,STON1 C328 (UniProt Q9Y6Q2),-0.00426
5,STK33 C467 (UniProt Q9BYT3),0.273
6,STIL C752 (UniProt Q15468),-0.487
7,STIM2 C426 (UniProt Q9P246),0.157
8,STEAP3 C168 (UniProt Q658P3),-0.11
9,SUPT5H C626 (UniProt O00267),0.842
10,SPTBN2 C2043 (UniProt O15020),-0.0503
11,STIP1 C62,-0.137
12,SRPRB C179 (UniProt Q9Y5M8),0.456
13,SRM C123 (UniProt P19623),-0.516
14,SYNCRIP C289 (UniProt O60506),0.0302
15,SREK1 C494 (UniProt Q8WXA9),-0.614
16,SPATA5 C459 (UniProt Q8NB90),0.477
17,SUCO C315 (UniProt Q9UBS9),-0.261

row,Target,log2 mean competition ratio
1,SUMF2 C290 (UniProt Q8NBJ7),0.172
2,SUPT6H C1435 (UniProt Q7KZ85),-0.11
3,STK38 C234 (UniProt Q15208),-0.0994
4,SUCLA2 C384 (UniProt Q9P2R7),-0.0268
5,STBD1 C108 (UniProt O95210),-0.104
6,SRPRB C100 (UniProt Q9Y5M8),0.0722
7,STIP1 C370,-0.128
8,SSU72 C12 (UniProt Q9NP77),-0.586
9,STAU1 C574 (UniProt O95793),0.13
10,SYNE2 C1235 (UniProt Q8WXH0),-0.47
11,SSH1 C564,-0.276
12,SUPT20H C48 (UniProt Q8NEM7),-0.31
13,SUGT1 C88 (UniProt Q9Y2Z0),0.921
14,SVBP C58 (UniProt Q8N300),0.211
15,STK38 C9 (UniProt Q15208),0.0102
16,SYNE3 C51,-0.254
17,SYNE2 C2212 (UniProt Q8WXH0),-0.103

# Same assay, conditions: 200 µM; treatment time: 4 h; cell line lysate: HEK293T
row,Target,log2 mean competition ratio
1,SPATA2 C41,0.195
2,STIM1 C49 (UniProt Q13586),0.298
3,SRBD1 C294 (UniProt Q8N5C6),0.0934
4,STK24 C394,0.0843
5,STON1 C328 (UniProt Q9Y6Q2),-0.0405
6,STK33 C467 (UniProt Q9BYT3),-0.0134
7,STIL C752 (UniProt Q15468),0.0681
8,STIM2 C426 (UniProt Q9P246),-0.236
9,STEAP3 C168 (UniProt Q658P3),0.12
10,SUPT5H C626 (UniProt O00267),0.532
11,SPPL2A C503 (UniProt Q8TCT8),-0.489
12,SPTBN2 C2043 (UniProt O15020),-0.00406
13,STIP1 C62,0.243
14,SRPRB C179 (UniProt Q9Y5M8),0.233
15,SRM C123 (UniProt P19623),-0.649
16,SYNCRIP C289 (UniProt O60506),0.0248
17,SREK1 C494 (UniProt Q8WXA9),0.0042
18,SPATA5 C459 (UniProt Q8NB90),0.175
19,SUCO C315 (UniProt Q9UBS9),0.299

row,Target,log2 mean competition ratio
1,SUMF2 C290 (UniProt Q8NBJ7),0.536
2,SUPT6H C1435 (UniProt Q7KZ85),0.167
3,STK38 C234 (UniProt Q15208),0.134
4,SUCLA2 C384 (UniProt Q9P2R7),-0.141
5,STX7 C28 (UniProt O15400),-0.339
6,STBD1 C108 (UniProt O95210),0.343
7,SRPRB C100 (UniProt Q9Y5M8),-0.225
8,STIP1 C370,-0.0777
9,SSU72 C12 (UniProt Q9NP77),0.371
10,STAU1 C574 (UniProt O95793),0.393
11,SYNE2 C1235 (UniProt Q8WXH0),0.128
12,SSH1 C564,-0.241
13,SUPT20H C48 (UniProt Q8NEM7),-0.128
14,SUGT1 C88 (UniProt Q9Y2Z0),-0.217
15,SVBP C58 (UniProt Q8N300),0.102
16,STK38 C9 (UniProt Q15208),-0.0721
17,SYNE3 C51,-0.0599
18,SYNE2 C2212 (UniProt Q8WXH0),-0.00733
